Results deposited as PubChem BioAssay AID1259424 (University of Nebraska Medical Center, 2018)

- Test: 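Seek colon cancer survival genes behaving like KSR1, using a six-gene signature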 (primary screen)
- System: human HCT116 colon cancer cells
- Knock-down reagent: siRNA pool against human genes, 50 nM
- Detection: 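Six signature mRNAs by branched-DNA multiplex assay, scaled to two housekeeping genes and non-targeting median, log2; matched to mean KSR1 knockdown profile by Pearson correlation and euclidean distance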
- Reading the numbers: mean correlation with KSR1 profile: higher = expression change more like KSR1 knockdown
This is a random part of about 14,000 reagents. 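Higher correlation or smaller distance means closer resemblance to KSR1 loss; control wells, including KSR1 knockdowns, recur on many plates.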 Reagents against one gene are numbered here. Some reagents were tested in more than one well and are listed for each. Further read-outs or replicates are left out here. Not given: the time to read-out.

What is on record for OGN?
mean correlation with KSR1 profile: 0.3

How did the screen score TPSD1?
mean correlation with KSR1 profile: -0.615

What did the screen give for TNP2?
mean correlation with KSR1 profile: -0.503

How did the screen score AVPR1B?
mean correlation with KSR1 profile: 0.403

For AVPR1B, what was measured?
mean correlation with KSR1 profile: 0.317

How did the screen score SLC12A5?
mean correlation with KSR1 profile: -0.0478

What did the screen give for FRMD8P1?
mean correlation with KSR1 profile: 0.0496

With ZNF83, what was measured?
mean correlation with KSR1 profile: 0.0562

For CTNNB1, what was measured?
mean correlation with KSR1 profile: -0.0361

With STK11, how do the results read?
mean correlation with KSR1 profile: 0.123

How did the screen score PPOX?
mean correlation with KSR1 profile: 0.608

How did the screen score MYOM2?
mean correlation with KSR1 profile: -0.264

With COXFA4L2, what was measured?
mean correlation with KSR1 profile: -0.0107

Which result is listed for INSM1?
mean correlation with KSR1 profile: 0.605

With MEIS3, what does the deposit list?
mean correlation with KSR1 profile: 0.129

Which result is listed for FILIP1?
mean correlation with KSR1 profile: 0.0914

Which result is listed for MBP?
mean correlation with KSR1 profile: -0.489

With MARVELD1, what was measured?
mean correlation with KSR1 profile: 0.819

Sorted by “mean correlation with KSR1 profile” (low to high): some entries from above
MYOM2 | mean correlation with KSR1 profile = -0.264
CTNNB1 | mean correlation with KSR1 profile = -0.0361
STK11 | mean correlation with KSR1 profile = 0.123
PPOX | mean correlation with KSR1 profile = 0.608

Continued.
What did the screen give for EPG5?
mean correlation with KSR1 profile: -0.398

What is on record for CHM #1?
mean correlation with KSR1 profile: -0.373

What did the screen give for CHM #2?
mean correlation with KSR1 profile: -0.391

For PLPP3, what does the deposit list?
mean correlation with KSR1 profile: -0.408

Which result is listed for ADNP?
mean correlation with KSR1 profile: -0.584

What is on record for NKRF?
mean correlation with KSR1 profile: 0.139

What is on record for B4GALT6?
mean correlation with KSR1 profile: 0.0285

With CRIP2, how do the results read?
mean correlation with KSR1 profile: 0.501

With EPHB1, how do the results read?
mean correlation with KSR1 profile: 0.651

With INPP5B, what was measured?
mean correlation with KSR1 profile: -0.559

How did the screen score PAF1?
mean correlation with KSR1 profile: -0.702

Which result is listed for TRAF1?
mean correlation with KSR1 profile: -0.368

With SLC25A4, how do the results read?
mean correlation with KSR1 profile: 0.298

For ARMC1, how do the results read?
mean correlation with KSR1 profile: 0.526

How did the screen score H3C12?
mean correlation with KSR1 profile: -0.181

For KLK7, how do the results read?
mean correlation with KSR1 profile: 0.0648

With PREB, what does the deposit list?
mean correlation with KSR1 profile: 0.371

With FBN2, what was measured?
mean correlation with KSR1 profile: -0.24
